According to PubChem BioAssay AID485314 (National Center for Advancing Translational Sciences (NCATS), 2010):
Hit rate of the full screen: of about 340,000 compounds, about 4,500 (1.3%) were called active. The inconclusive results got no clear call from the source; some entries with a clear call stand among them for comparison. The call rests on the fitted dose curve; in most records, active means well fitted inhibition curve with a large enough effect; inconclusive means small, poorly fitted or top-dose-only effect, or another doubt; inactive means no such curve, though single readings can be large or run the other way. Where the call is inconclusive, the potency comes from a doubtful curve fit.

Biological target: DNA polymerase beta (Homo sapiens) (UniProt P06746)
Assay: qHTS Assay for Inhibitors of DNA Polymerase Beta
Conditions: Pol beta primer extension/strand displacement, fluorescence kinetic; activity change, negative = inhibition: at 114 µM (top of the series)
Summary of the method: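 Preincubation: enzyme (10 nM) with compound, 15 min, RT. Reaction: substrate added to 50 nM final. Reads: 0 and 10 min. Analysis: normalized, Hill fit.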
On the % scale 0 is the no-effect control and ±100 the full control effect; potency means the concentration at half of the fitted maximal effect.

Potency, inactive:
COC(=O)C1=C(C)N(Cc2ccccc2)C(=S)N[C@H]1c1ccccc1

Potency, inconclusive:
CCCOc1ccc(CCc2n[nH]c(=S)n2Cc2ccccc2)cc1 22.4 µM [inhibitor, partial curve, poor fit]
Cc1nn(-c2ccccc2)c2sc(C(=O)Nc3cccc(Br)c3)cc12 0.794 µM [inhibitor, partial curve]
Cc1nnc(Sc2nc3ccccc3o2)c2ccccc12 100 µM [inhibitor, single point]
CC(C)(C)n1nc2c(c1NC(=O)COc1ccc(F)cc1)CS(=O)(=O)C2 3.16 µM [inhibitor, single point]
CC(=O)Nc1ccc2nc(NC(=O)COc3cccc(C)c3)sc2c1 44.7 µM [inhibitor, partial curve, poor fit]
Cc1ncc(CN2CCN(CCc3ccccc3)C(CCO)C2)s1 (stereo not given) 0.708 µM [inhibitor, partial curve, poor fit]
Cc1cccc(CNC(=O)C2CCC(=O)N(Cc3ccccc3F)C2)n1 (stereo not given) 15.8 µM [inhibitor, single point]
COc1ccc(C(CNC(=O)Cn2[nH]c(=O)c3ccccc3c2=O)N2CCCC2)cc1 (stereo not given) 20 µM [inhibitor, partial curve]
COc1ccc(CCNc2nc3cc(OC)c(OC)cc3c3nc(-c4cccnc4)nn23)cc1OC 2.51 µM [inhibitor, full curve, poor fit]
CC1CCCN(CCC(=O)Nc2ccc(F)c(F)c2)C1 (stereo not given) 89.1 µM [inhibitor, single point]
COc1ccc(CNC(=O)CN(Cc2ccc(OC)cc2)C(=O)CCC(=O)Nc2nccs2)cc1 0.141 µM [inhibitor, full curve, poor fit]
O=C(Cc1cccs1)Nc1nnc(SCc2ccc(C(F)(F)F)cc2)s1 15.8 µM [inhibitor, full curve, poor fit]
O=C(O)CCCCCCNC(=O)c1cncc(O)c1 0.708 µM [inhibitor, full curve, poor fit]
Cc1cc(=O)n2nc(-c3ccccc3)sc2n1 89.1 µM [inhibitor, single point]
CC(C)C(NC(=O)c1ccco1)C(=O)OCC(=O)c1ccccc1 (stereo not given) 0.282 µM [inhibitor, full curve, poor fit]
Cc1cc(C)n(C(=O)N(c2ccccc2)c2ccccc2)n1 14.1 µM [inhibitor, partial curve, poor fit]
CC1=NC(=O)C(N=Nc2cccc(C(=O)O)c2)N1c1ccccc1 (stereo not given) 20 µM [inhibitor, full curve]
O=C(O)/C(CC(=O)c1ccc(Cl)cc1)=N/Nc1ccc([N+](=O)[O-])cc1[N+](=O)[O-] 79.4 µM [inhibitor, single point]
CC(=O)Nc1ccc(NC(=O)C2C3C=CC(C3)C2C(=O)O)cc1 (stereo not given) 25.1 µM [inhibitor, partial curve, poor fit]
Cc1nc2ccc([N+](=O)[O-])cc2c(=O)n1Cc1ccc(F)cc1 3.16 µM [inhibitor, single point]
CCN(CC)S(=O)(=O)c1cccc(C(=O)NCc2ccccc2)c1 5.01 µM [inhibitor, full curve, poor fit]
Cc1cc(C(=O)CSc2ccc(F)cc2)cc(C)c1OC(=S)N(C)C 0.251 µM [inhibitor, full curve, poor fit]
CN(C)c1nc(N)nc(CSc2nnnn2C)n1 89.1 µM [inhibitor, single point]
CC(=O)c1ccc(OCc2cc(=O)n3ccsc3n2)cc1 31.6 µM [inhibitor, full curve]
COc1ccccc1N1CCN(C(=O)c2cc(-c3ccc(Cl)c(Cl)c3)on2)CC1 89.1 µM [inhibitor, single point]
Cc1ccc(OS(=O)(=O)c2cn(C)c(=O)n(C)c2=O)cc1C 89.1 µM [inhibitor, single point]
Cc1ccc(-n2nc3c(N4CCC(C(=O)NCc5cccc(F)c5)CC4)nnc(C)c3c2C)cc1 44.7 µM [inhibitor, single point]
CC(=O)c1cc(-c2ccc(F)cc2)n(CCC(=O)Nc2nc3ccc(C)cc3s2)c1C 89.1 µM [inhibitor, single point]
COC(=O)C1CSC(c2ccc(Cl)cc2)N1C(=O)c1ccccc1 (stereo not given) 0.891 µM [inhibitor, full curve, poor fit]
Cc1c(O)cccc1C(=O)N[C@@H](CSc1ccccc1)[C@H](O)CN1C[C@H]2CCCC[C@H]2C[C@H]1C(=O)NC(C)(C)C 0.141 µM [inhibitor, full curve, poor fit]
Cc1ccc(S(=O)(=O)N2CCCCC2)cc1C(=O)Nc1ccccn1 28.2 µM [inhibitor, full curve, poor fit]
Cc1ccc(-c2nn3c(C)nnc3s2)cc1NC(=O)c1cccs1 28.2 µM [inhibitor, partial curve, poor fit]
Cc1cc2cc(CNC(=O)Cc3cccs3)ccc2n1C 2 µM [inhibitor, partial curve, poor fit]
O=C(COC(=O)c1cccnc1Nc1cccc(C(F)(F)F)c1)NCc1ccc2c(c1)OCO2 4.47 µM [inhibitor, single point]
O=C(CSc1nnc(-c2cccnc2)n1Cc1ccco1)N1c2ccccc2Sc2ccccc21 89.1 µM [inhibitor, single point]
COc1ccc(C(=O)N=c2sc3ccccc3n2C)cc1 89.1 µM [inhibitor, single point]
COCCCn1c(=N)c(C(=O)NC2CCCCC2)cc2c(=O)n3cc(C)ccc3nc21 6.31 µM [inhibitor, single point]
CCCCNC(=O)CN1CCN(c2ncc(NC(=O)c3ccc(Cl)cc3)cc2C(=O)O)CC1 70.8 µM [inhibitor, partial curve]
Cn1ncc(C(N)=O)c1NC(=S)NC(=O)c1ccc(Br)o1 25.1 µM [inhibitor, partial curve, poor fit]
CCN(CC)CCN(C(=O)c1ccc2ncsc2c1)c1nc2cc3c(cc2s1)OCO3 79.4 µM [inhibitor, single point]
O=C(Cc1cccs1)Nc1ccc(-c2nnc(-c3ccco3)o2)cc1 44.7 µM [inhibitor, partial curve]
c1nnc(NC2=NCCCCC2)s1 89.1 µM [inhibitor, single point]
O=C1Nc2ccccc2C12OCCCCO2 3.55 µM [inhibitor, full curve, poor fit]
Cc1ccc(-n2nc3c(=O)n(C(C)C(=O)NCc4ccc5c(c4)OCO5)nc(C)c3c2C)cc1 (stereo not given) 89.1 µM [inhibitor, single point]
CCC(C)NC(=O)c1sc2nc3n(c(=O)c2c1C)CCC3 (stereo not given) 7.94 µM [inhibitor, full curve]

Potency, active:
O=C(CSc1nc2c(cnn2-c2ccc(F)cc2)c(=O)[nH]1)Nc1ccccc1C(F)(F)F 7.94 µM
CC(=O)c1cccc(NC(=O)CSc2ccc(-c3ccco3)nn2)c1 50.1 µM
COC1=C(OC)C(=O)c2ccccc2C1=O 28.2 µM
O=Nc1ccc(NOC(=O)c2ccccc2Br)cc1 79.4 µM
Clc1ccc(-c2nnc(-c3ccco3)nc2N2CCCCC2)cc1 39.8 µM
Cc1cccc(CNC(=O)CN2C(=O)CCn3nc(-c4cn(C)c5ccccc45)cc32)c1 17.8 µM
Cc1ccc2c(nc3s/c(=C\c4ccc(-c5ccccc5C(=O)O)o4)c(=O)n32)c1C 20 µM
CCOc1ccc(NC(=O)CSc2oc(-c3ccc(C)cc3)nc2S(=O)(=O)c2ccc(C)cc2)cc1 3.16 µM
CN(C)S(=O)(=O)c1cccc(NC(=O)COC(=O)/C=C/c2ccco2)c1 31.6 µM

Quoted at random: 2 records from the list.
Potency, active:
O=Nc1ccc(NOC(=O)c2ccccc2Br)cc1 79.4 µM
CCOc1ccc(NC(=O)CSc2oc(-c3ccc(C)cc3)nc2S(=O)(=O)c2ccc(C)cc2)cc1 3.16 µM

Following part:

Activity change, negative = inhibition, inactive:
CCOC(=O)NC(=O)/C(C#N)=N\Nc1cccc(Cl)c1 -6.34%
Cc1cc([N+](=O)[O-])cc2c1NC(c1ccccn1)C1CC=CC21 (stereo not given) -23%
Cc1ccc(SCc2nc(-c3ccc(C(=O)NCC(C)c4ccccc4)cc3)oc2C)cc1 (stereo not given) 40.9%
CC1=NN(CCC#N)C(=O)/C1=C/c1ccc(N(C)C)cc1 -29.4%
COc1ccc(C(C)(C)C)cc1NC(=O)COC(=O)c1ccc([N+](=O)[O-])o1 -16.7%
CCCOc1cccc(C2c3c(oc4ccc(F)cc4c3=O)C(=O)N2c2nc(C)c(C(C)=O)s2)c1 (stereo not given) 41%
Cc1cccc(N2CCN(C(=O)c3cc4ccc5cccnc5c4[nH]3)CC2C)c1 (stereo not given) -17.7%

A section taken from the entries so far, as a working copy:
Activity change, negative = inhibition, inactive:
COc1ccc(C(C)(C)C)cc1NC(=O)COC(=O)c1ccc([N+](=O)[O-])o1 -16.7%
CCCOc1cccc(C2c3c(oc4ccc(F)cc4c3=O)C(=O)N2c2nc(C)c(C(C)=O)s2)c1 (stereo not given) 41%
Cc1cccc(N2CCN(C(=O)c3cc4ccc5cccnc5c4[nH]3)CC2C)c1 (stereo not given) -17.7%

Following part:

Activity change, negative = inhibition, inconclusive:
COc1cccc(NC(=O)Cn2c(=O)n(CCC(=O)NC3CCN(Cc4ccccc4)CC3)c(=O)c3ccccc32)c1 -161% [inhibitor]
Cc1ccc(-c2csc3ncnc(Nc4ccc(C(=O)O)cc4)c23)cc1 -32.5% [inhibitor]
CCc1ccccc1N(CC)C(=O)C1CCN(c2ncnc3c2nc2n3CCCCC2)CC1 -38.8% [inhibitor]
